PubChem BioAssay AID1159584, Peter MacCallum Cancer Centre | 2016
The whole screen tested about 18,000 reagents; below is a random part of them. Not given: the amount of reagent, the time to read-out.

- Aim: 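Knock-downs that harm CDH1-null cells more than parental MCF10A cells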 (primary screen)
- Cell system: human MCF10A breast epithelial cells, parental and CDH1-null
- Reagents: siRNA against human genes
- Measured: 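Cell viability by CellTiter-Glo ATP luminescence, each line scaled to the mean of mock wells across plates, then CDH1-null over parental ratio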
- Direction: CDH1-null / parental viability ratio: higher = CDH1-null cells survive relatively better than parental; CDH1-null viability vs mock: higher = more viable CDH1-null cells; parental viability vs mock: higher = more viable parental cells

Gene | CDH1-null / parental viability ratio | CDH1-null viability vs mock (fraction of mock) | parental viability vs mock (fraction of mock)
RCC2 (regulator of chromosome condensation 2) | 0.7 | 0.6 | 0.86
MPV17L (MPV17 mitochondrial inner membrane protein like) | 0.8 | 0.35 | 0.44
HSD17B13 (hydroxysteroid 17-beta dehydrogenase 13) | 1 | 1.15 | 1.15
IGF1 (insulin like growth factor 1) | 0.9 | 0.63 | 0.7
SCML4 (Scm polycomb group protein like 4) | 1.12 | 0.92 | 0.82
NRAS (NRAS proto-oncogene, GTPase) | 1.03 | 0.8 | 0.78
GREM1 (gremlin 1, DAN family BMP antagonist) | 1 | 0.77 | 0.77
HACD4 (3-hydroxyacyl-CoA dehydratase 4) | 1.09 | 1.2 | 1.1
SLC35E3 | 1.15 | 0.9 | 0.78
HPCA (hippocalcin) | 1.11 | 0.84 | 0.76
COL16A1 (collagen type XVI alpha 1 chain) | 1.05 | 0.8 | 0.76
PKP2 (plakophilin 2) | 1 | 0.38 | 0.38
RAP1B (RAP1B, member of RAS oncogene family) | 0.94 | 0.94 | 1
LAMTOR4 (late endosomal/lysosomal adaptor, MAPK and MTOR activator 4) | 1.25 | 0.8 | 0.64
MBNL1 (muscleblind like splicing regulator 1) | 1.56 | 0.97 | 0.62
ZSWIM1 (zinc finger SWIM-type containing 1) | 1.12 | 0.64 | 0.57
NAV1 (neuron navigator 1) | 1.02 | 0.98 | 0.96
TMEM245 (transmembrane protein 245) | 0.83 | 0.75 | 0.9
CCNB1 (cyclin B1) | 0.73 | 0.67 | 0.92
PRY (PTPN13 like Y-linked) | 1.14 | 0.66 | 0.58
MAP3K2 (mitogen-activated protein kinase kinase kinase 2) | 0.99 | 0.92 | 0.93
ZNF554 (zinc finger protein 554) | 0.94 | 1.02 | 1.09
TP53TG3 (TP53 target 3) | 1.06 | 0.68 | 0.64
SDR16C5 (short chain dehydrogenase/reductase family 16C member 5) | 1.14 | 0.9 | 0.79
DOCK10 (dedicator of cytokinesis 10) | 0.93 | 0.76 | 0.82
SLC25A13 | 1.16 | 1.02 | 0.88
PARD6A (par-6 family cell polarity regulator alpha) | 1.1 | 0.92 | 0.84
PSAT1 (phosphoserine aminotransferase 1) | 1.05 | 1.03 | 0.98
DCAF11 (DDB1 and CUL4 associated factor 11) | 1.01 | 0.91 | 0.9
OR2L3 (olfactory receptor family 2 subfamily L member 3) | 0.89 | 0.48 | 0.54
TSPAN13 (tetraspanin 13) | 1.14 | 0.97 | 0.85
RGS12 (regulator of G protein signaling 12) | 0.85 | 0.74 | 0.87

The list goes on, starting with the last 4 of the part before.
Gene | CDH1-null / parental viability ratio | CDH1-null viability vs mock (fraction of mock) | parental viability vs mock (fraction of mock)
DCAF11 (DDB1 and CUL4 associated factor 11) | 1.01 | 0.91 | 0.9
OR2L3 (olfactory receptor family 2 subfamily L member 3) | 0.89 | 0.48 | 0.54
TSPAN13 (tetraspanin 13) | 1.14 | 0.97 | 0.85
RGS12 (regulator of G protein signaling 12) | 0.85 | 0.74 | 0.87
KRT12 (keratin 12) | 1.17 | 1.12 | 0.96
PIDD1 (p53-induced death domain protein 1) | 1.08 | 0.83 | 0.77
CCDC43 (coiled-coil domain containing 43) | 0.87 | 0.82 | 0.94
CDC42SE1 (CDC42 small effector 1) | 0.94 | 0.78 | 0.83
NDUFS2 (NADH:ubiquinone oxidoreductase core subunit S2) | 1.05 | 0.82 | 0.78
ATP6V0E2 (ATPase H+ transporting V0 subunit e2) | 0.96 | 0.69 | 0.72
CAGE1 (cancer antigen 1) | 1.1 | 0.96 | 0.87
HTRA2 (HtrA serine peptidase 2) | 1.18 | 0.9 | 0.76
ITPKA (inositol-trisphosphate 3-kinase A) | 0.89 | 0.68 | 0.76
MCC (MCC regulator of Wnt signaling pathway) | 1.13 | 0.88 | 0.78
ASPM (assembly factor for spindle microtubules) | 1.04 | 1.08 | 1.04
KLRF1 (killer cell lectin like receptor F1) | 0.79 | 0.65 | 0.82
SEL1L (SEL1L adaptor subunit of SYVN1 ubiquitin ligase) | 0.74 | 0.55 | 0.74
SYT13 (synaptotagmin 13) | 1.14 | 0.88 | 0.77
DDX20 (DEAD-box helicase 20) | 1.12 | 1.12 | 1
WNT1 (Wnt family member 1) | 1.19 | 0.82 | 0.69
SSX3 (SSX family member 3) | 1.14 | 1.05 | 0.92
FBXO46 (F-box protein 46) | 0.89 | 0.78 | 0.88
ZNF69 (zinc finger protein 69) | 1.24 | 0.62 | 0.5
NCBP2 (nuclear cap binding protein subunit 2) | 1.24 | 0.72 | 0.58
KRTAP5-1 (keratin associated protein 5-1) | 0.88 | 0.5 | 0.57
ADARB2 (adenosine deaminase RNA specific B2 (inactive)) | 0.87 | 1.05 | 1.21
TCP11 (t-complex 11) | 1.23 | 0.9 | 0.73
RPS3A (ribosomal protein S3A) | 1.29 | 0.22 | 0.17
SAMD14 (sterile alpha motif domain containing 14) | 0.96 | 0.79 | 0.82
GP9 (glycoprotein IX platelet) | 1.2 | 0.53 | 0.44
HSPA1L (heat shock protein family A (Hsp70) member 1 like) | 1.05 | 0.86 | 0.82
MZB1 (marginal zone B and B1 cell specific protein) | 1 | 0.6 | 0.6
STAT5B (signal transducer and activator of transcription 5B) | 1.02 | 0.88 | 0.86
TNFRSF10A (TNF receptor superfamily member 10a) | 0.96 | 0.88 | 0.92
RIOK1 (RIO kinase 1) | 0.92 | 0.68 | 0.74
DOCK2 (dedicator of cytokinesis 2) | 0.85 | 0.68 | 0.8
PDSS1 (decaprenyl diphosphate synthase subunit 1) | 0.88 | 0.92 | 1.04
ENPP7 (ectonucleotide pyrophosphatase/phosphodiesterase 7) | 1.17 | 0.94 | 0.8
TUBB4B (tubulin beta 4B class IVb) | 1.03 | 0.99 | 0.96
TFEB (transcription factor EB) | 1.16 | 0.74 | 0.64
